# Data reported in the supplement of paper PMC10849652.
# Sequences of proteins named here, by UniProt entry; tags and fusion partners are left off. A change or cut given only in a name is not applied to a line headed by its entry.
# UniProt Q9HD34: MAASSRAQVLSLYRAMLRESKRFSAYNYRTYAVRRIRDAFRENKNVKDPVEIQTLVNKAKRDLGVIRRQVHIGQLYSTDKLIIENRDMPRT
# UniProt P43362: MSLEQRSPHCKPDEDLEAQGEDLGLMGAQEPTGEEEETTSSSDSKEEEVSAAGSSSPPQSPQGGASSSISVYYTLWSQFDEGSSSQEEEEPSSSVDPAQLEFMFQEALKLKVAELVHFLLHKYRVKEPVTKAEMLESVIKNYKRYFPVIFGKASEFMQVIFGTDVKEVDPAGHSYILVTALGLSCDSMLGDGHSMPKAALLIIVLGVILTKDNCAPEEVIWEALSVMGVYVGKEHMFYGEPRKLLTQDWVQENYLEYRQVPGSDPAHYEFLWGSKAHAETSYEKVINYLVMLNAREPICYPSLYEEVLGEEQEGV
# UniProt P45983: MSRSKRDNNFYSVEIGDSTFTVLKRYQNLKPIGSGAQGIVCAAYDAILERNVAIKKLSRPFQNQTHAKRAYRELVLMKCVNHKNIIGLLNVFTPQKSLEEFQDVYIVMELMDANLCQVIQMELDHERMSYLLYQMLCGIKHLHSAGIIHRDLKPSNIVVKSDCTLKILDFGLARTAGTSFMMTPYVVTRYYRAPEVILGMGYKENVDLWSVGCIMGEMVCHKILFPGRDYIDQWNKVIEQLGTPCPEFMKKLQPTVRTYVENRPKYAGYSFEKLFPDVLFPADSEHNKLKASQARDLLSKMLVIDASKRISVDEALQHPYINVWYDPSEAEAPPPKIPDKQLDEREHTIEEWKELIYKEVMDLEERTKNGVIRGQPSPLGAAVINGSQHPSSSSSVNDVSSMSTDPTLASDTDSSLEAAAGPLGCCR
# UniProt Q9NX47: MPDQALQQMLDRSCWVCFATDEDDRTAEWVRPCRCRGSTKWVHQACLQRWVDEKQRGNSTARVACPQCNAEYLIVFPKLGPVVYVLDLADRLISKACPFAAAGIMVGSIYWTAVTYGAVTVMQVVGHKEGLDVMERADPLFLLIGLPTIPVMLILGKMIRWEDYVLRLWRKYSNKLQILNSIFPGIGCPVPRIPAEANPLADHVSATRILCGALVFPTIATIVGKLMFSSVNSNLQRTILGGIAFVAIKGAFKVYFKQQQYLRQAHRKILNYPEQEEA
# UniProt O15525: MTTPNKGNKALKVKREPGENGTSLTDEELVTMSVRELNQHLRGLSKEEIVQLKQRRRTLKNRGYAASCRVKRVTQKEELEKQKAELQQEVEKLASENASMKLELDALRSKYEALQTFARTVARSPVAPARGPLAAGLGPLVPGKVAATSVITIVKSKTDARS
# UniProt Q9HAY2: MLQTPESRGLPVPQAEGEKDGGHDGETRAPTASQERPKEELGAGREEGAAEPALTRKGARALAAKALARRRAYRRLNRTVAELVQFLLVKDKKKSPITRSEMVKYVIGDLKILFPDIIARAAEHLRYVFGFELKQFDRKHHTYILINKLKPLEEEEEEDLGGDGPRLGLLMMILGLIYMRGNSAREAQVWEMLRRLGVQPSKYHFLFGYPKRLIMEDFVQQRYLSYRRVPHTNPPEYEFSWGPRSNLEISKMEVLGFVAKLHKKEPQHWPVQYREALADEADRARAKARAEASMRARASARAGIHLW
# UniProt Q14210: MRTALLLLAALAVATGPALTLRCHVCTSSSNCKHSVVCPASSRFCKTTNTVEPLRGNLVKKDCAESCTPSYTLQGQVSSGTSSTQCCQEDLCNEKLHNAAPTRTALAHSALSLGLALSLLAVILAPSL
# UniProt P43360, whole entry, looked up: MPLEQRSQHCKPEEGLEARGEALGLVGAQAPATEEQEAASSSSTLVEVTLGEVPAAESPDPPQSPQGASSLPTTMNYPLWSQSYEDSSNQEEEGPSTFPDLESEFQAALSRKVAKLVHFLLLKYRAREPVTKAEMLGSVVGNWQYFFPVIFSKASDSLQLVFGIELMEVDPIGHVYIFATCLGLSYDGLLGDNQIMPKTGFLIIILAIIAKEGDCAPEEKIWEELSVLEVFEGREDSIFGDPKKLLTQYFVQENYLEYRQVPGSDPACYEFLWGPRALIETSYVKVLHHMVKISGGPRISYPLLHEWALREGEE
# UniProt O60307: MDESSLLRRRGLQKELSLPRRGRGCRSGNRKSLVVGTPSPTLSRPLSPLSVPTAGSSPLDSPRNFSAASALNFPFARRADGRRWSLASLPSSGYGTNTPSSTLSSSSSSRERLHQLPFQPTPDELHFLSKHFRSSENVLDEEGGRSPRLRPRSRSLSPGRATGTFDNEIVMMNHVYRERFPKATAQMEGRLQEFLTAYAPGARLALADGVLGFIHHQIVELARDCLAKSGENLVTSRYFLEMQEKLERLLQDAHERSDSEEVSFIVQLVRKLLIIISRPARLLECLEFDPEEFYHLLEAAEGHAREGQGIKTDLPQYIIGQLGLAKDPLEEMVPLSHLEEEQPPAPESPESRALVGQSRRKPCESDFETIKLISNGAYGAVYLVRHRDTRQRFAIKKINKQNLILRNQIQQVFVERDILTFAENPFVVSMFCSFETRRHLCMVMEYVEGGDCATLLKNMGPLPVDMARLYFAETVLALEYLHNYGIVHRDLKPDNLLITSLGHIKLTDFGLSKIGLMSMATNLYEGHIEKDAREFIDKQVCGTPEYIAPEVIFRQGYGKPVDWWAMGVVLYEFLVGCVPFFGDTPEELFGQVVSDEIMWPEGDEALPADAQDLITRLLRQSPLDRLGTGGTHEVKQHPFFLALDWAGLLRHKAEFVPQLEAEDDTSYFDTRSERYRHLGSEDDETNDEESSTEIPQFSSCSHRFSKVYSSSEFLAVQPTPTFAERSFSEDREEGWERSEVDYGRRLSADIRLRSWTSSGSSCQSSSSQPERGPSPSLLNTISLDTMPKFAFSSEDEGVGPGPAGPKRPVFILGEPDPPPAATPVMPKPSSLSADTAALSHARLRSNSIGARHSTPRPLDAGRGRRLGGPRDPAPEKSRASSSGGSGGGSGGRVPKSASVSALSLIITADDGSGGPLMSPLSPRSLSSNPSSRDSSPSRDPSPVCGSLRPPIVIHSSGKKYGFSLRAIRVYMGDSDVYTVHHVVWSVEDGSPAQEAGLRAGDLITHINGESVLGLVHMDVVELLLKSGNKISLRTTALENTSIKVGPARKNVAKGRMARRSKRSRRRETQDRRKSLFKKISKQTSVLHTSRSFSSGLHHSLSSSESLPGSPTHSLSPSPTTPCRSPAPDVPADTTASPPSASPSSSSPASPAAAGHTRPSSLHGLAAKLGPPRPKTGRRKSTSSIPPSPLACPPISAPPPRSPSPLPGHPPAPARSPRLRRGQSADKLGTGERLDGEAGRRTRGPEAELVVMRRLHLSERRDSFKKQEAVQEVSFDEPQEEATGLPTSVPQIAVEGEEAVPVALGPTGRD
# UniProt Q9NQG1: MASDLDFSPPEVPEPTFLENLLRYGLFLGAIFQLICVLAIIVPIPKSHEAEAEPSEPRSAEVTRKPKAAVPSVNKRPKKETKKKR
# UniProt P10636, whole entry, looked up: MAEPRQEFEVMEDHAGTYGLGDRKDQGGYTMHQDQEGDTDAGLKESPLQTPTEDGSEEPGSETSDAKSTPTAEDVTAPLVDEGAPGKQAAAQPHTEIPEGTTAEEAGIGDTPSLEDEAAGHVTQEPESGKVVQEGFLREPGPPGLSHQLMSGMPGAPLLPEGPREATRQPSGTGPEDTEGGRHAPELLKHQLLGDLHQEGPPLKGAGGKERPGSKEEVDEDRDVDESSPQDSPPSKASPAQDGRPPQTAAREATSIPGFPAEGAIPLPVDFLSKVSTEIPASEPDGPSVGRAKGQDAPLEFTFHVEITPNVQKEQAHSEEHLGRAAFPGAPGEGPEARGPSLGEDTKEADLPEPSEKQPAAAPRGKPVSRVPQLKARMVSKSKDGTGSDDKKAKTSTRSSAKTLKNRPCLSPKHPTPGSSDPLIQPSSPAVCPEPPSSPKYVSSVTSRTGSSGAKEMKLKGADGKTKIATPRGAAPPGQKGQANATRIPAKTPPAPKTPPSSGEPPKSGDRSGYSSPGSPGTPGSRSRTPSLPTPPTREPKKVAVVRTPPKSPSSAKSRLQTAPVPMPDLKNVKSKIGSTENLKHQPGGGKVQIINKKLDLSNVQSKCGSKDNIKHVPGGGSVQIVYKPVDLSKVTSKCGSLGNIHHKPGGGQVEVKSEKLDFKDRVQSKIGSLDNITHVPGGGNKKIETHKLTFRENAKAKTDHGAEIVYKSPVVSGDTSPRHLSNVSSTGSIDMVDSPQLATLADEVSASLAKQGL
# UniProt Q9H992: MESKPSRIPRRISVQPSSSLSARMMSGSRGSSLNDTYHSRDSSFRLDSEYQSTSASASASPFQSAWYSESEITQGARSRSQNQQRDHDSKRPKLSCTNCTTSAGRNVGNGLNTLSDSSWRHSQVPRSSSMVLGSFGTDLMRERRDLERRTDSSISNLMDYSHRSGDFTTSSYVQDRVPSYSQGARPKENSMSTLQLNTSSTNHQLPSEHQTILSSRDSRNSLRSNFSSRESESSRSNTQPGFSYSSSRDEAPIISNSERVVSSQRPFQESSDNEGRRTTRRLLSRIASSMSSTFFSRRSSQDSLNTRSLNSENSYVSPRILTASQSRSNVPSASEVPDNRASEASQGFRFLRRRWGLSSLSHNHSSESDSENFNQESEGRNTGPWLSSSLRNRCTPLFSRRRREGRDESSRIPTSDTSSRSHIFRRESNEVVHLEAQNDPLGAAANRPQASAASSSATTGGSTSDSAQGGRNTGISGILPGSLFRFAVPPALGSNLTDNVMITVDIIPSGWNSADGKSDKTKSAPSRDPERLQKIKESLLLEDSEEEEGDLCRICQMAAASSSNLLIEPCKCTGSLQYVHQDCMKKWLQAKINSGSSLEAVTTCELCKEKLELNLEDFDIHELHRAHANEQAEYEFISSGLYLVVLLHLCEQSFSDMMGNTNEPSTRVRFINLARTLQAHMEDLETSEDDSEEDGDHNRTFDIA
# UniProt P21397, whole entry, looked up: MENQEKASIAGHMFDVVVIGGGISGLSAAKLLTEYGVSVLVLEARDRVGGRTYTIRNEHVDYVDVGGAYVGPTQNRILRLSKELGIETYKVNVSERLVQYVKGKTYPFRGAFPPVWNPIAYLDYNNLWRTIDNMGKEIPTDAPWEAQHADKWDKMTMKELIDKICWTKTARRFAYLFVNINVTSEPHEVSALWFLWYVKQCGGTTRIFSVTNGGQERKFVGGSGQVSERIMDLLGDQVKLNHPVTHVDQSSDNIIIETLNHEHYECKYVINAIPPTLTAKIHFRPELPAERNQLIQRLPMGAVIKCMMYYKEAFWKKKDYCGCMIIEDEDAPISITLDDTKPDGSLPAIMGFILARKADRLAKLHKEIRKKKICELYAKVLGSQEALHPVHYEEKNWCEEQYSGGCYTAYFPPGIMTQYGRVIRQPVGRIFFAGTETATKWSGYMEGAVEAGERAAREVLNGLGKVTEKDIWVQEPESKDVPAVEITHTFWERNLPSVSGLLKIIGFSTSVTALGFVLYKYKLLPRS
# UniProt Q9Y2E5: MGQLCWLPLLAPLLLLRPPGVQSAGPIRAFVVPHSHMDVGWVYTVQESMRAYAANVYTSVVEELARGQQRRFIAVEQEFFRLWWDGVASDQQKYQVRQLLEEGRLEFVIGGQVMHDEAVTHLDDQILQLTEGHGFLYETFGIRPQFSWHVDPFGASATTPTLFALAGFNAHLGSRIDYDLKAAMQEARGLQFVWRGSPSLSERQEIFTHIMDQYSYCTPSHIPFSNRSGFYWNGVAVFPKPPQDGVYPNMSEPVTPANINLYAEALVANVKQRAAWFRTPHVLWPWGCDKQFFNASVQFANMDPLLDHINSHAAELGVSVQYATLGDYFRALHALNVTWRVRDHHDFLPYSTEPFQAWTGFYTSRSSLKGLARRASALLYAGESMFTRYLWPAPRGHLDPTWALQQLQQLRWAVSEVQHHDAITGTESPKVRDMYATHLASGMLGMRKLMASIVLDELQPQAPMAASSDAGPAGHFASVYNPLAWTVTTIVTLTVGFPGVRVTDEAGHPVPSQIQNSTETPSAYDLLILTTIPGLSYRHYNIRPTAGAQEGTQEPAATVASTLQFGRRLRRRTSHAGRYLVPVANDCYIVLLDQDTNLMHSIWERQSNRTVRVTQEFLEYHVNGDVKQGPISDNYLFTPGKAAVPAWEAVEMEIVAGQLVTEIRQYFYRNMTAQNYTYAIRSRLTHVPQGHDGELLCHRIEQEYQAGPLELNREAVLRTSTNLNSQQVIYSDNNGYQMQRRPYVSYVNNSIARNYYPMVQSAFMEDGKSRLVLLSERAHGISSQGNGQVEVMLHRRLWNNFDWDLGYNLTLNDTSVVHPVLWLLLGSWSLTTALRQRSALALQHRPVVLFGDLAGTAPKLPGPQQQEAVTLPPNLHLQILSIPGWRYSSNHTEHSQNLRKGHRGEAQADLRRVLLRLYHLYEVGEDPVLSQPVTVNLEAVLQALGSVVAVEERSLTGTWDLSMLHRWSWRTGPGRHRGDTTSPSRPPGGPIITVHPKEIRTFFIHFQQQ
# UniProt O43325: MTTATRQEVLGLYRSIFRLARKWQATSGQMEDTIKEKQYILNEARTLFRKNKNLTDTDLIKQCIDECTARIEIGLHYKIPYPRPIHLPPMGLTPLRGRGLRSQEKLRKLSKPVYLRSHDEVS
# The list shows a part of the results.
# Assays:
# Assay in all cases: log2 fold change, soluble protein after heating vs DMSO (PISA); higher = thermal stabilisation; K562 lysate, 10 uM; active = over 0.2 and 3.5 SD of the protein, either way, in both replicates (recomputed)
# [1] = compound: C1=CC=C(C=C1)[C@H](COC2=CC3=C(C=C2)NC(=O)N3)NC(=O)C4=CC=CN(C4=O)CC5=CC(=C(C=C5)F)F
# How it was run: (§1)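 Log-two fold change in thermal stability relative to solvent controls is reported from duplicates. For each sample, crude K562 extract from dounce-homogenised pellets in PBS pH 7.4 with 1 mM MgCl2, at 1 mg/mL protein, was treated with 10 μM compound for 30 min. Aliquots heated for 3 min across 48°C-58°C were pooled, brought to 0.5% NP-40 at 4°C and cleared at 21,000xg for 90 min. The supernatant was quantified by TMTpro 16plex LC-MS/MS with channel sums equalised.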
# [2] = compound: CC1=C(SC2=C1C(=N[C@H](C3=NN=C(N32)C)CC(=O)N)C4=CC=C(C=C4)Cl)C
# How it was run: as §1
# [3] = compound: CC1=C2C(=CC=C1)N=C(N(C2=O)C3=CC=CC=C3C)CN4C=NC5=C(N=CN=C54)N
# How it was run: as §1
# [4] = compound: Cc1sc2c(c1C)C(c1ccc(Cl)cc1)=N[C@@H](CC(=O)OC(C)(C)C)c1nnc(C)n1-2
# How it was run: as §1
# [5] = compound: c1ccc([C@@H]2C[C@H]2NC2CCNCC2)cc1
# How it was run: as §1
Target,log2 fold change [1],log2 fold change [2],log2 fold change [3],log2 fold change [4],log2 fold change [5]
LYRM4 (UniProt Q9HD34),inactive: -0.03,inactive: 0.074,inactive: 0.077,inactive: 0.006,inactive: 0.004
MAGEA9 (UniProt P43362),inactive: -0.008,inactive: 0.07,inactive: 0.015,inactive: -0.021,inactive: 0.015
MARCKS (UniProt P29966),inactive: 0.044,inactive: 0.002,inactive: 0.014,inactive: 0.049,inactive: 0.042
MANF (UniProt P55145),inactive: 0.01,inactive: -0.027,inactive: -0.022,inactive: 0.003,inactive: 0.001
LUC7L3 (UniProt O95232),inactive: 0.009,inactive: 0.009,inactive: 0.024,inactive: -0.075,inactive: 0.016
MAPRE3 isoform 2 (UniProt Q9UPY8),inactive: 0.007,inactive: -0.088,inactive: -0.361,,inactive: 0.09
LTF (UniProt P02788),inactive: -0.034,inactive: 0.113,inactive: 0.141,inactive: -0.183,inactive: -0.264
MAPK8 isoform 3 (UniProt P45983),inactive: -0.01,inactive: 0.03,inactive: 0.004,inactive: 0.071,inactive: -0.026
MARCHF5 (UniProt Q9NX47),inactive: 0.061,inactive: -0.002,inactive: -0.026,inactive: 0.032,inactive: -0.154
MAST2 (UniProt Q6P0Q8),inactive: -0.257,inactive: 0.027,inactive: 0.073,inactive: -0.074,inactive: -0.028
MAPKAP1 (UniProt Q9BPZ7),,,,inactive: -0.048,
MAFG (UniProt O15525),inactive: 0.039,inactive: 0.07,,inactive: 0,inactive: -0.014
MAGEF1 (UniProt Q9HAY2),,,,inactive: -0.163,
MAPK7 (UniProt Q13164),,,,,inactive: 0.042
MAGEA4 (UniProt P43358),,,inactive: -0.019,inactive: -0.043,inactive: 0.204
LY6D (UniProt Q14210),,,,inactive: -0.893,
MAGEA6 (UniProt P43360),,,inactive: 0.086,,
MAP3K1 (UniProt Q13233),,,inactive: -0.063,,inactive: -0.066
MAPK15 (UniProt Q8TD08),,,,inactive: -0.41,

Target,log2 fold change [1],log2 fold change [2],log2 fold change [3],log2 fold change [4],log2 fold change [5]
"MACF1, A0A5F9ZGX0",,,,,inactive: 0.101
MAST3 (UniProt O60307),,,,inactive: 0.041,
MANBAL (UniProt Q9NQG1),inactive: -0.066,inactive: 0.115,,,inactive: -0.004
MAGEA2 (UniProt P43356),,,,inactive: 0.003,
MACF1 (UniProt E9PLY5),inactive: -0.019,inactive: 0.111,,,inactive: -0.235
MAP3K6 (UniProt O95382),,,inactive: 0.012,,
MAPT isoform 7 (UniProt P10636),,,inactive: 0.151,,inactive: 0
MAGEA3 (UniProt P43357),,,inactive: 0.15,,
MARCHF7 (UniProt Q9H992),,,,inactive: 0.001,
MAGEB10 (UniProt Q96LZ2),,,,,inactive: -0.147
MAGED4 isoform 4 (UniProt Q96JG8),,,,,inactive: -0.165
MAGEA12 (UniProt P43365),,,inactive: 0.03,,inactive: 0.09
LYL1 (UniProt P12980),inactive: -0.182,inactive: 0.146,,,inactive: -0.128
MAOA (UniProt P21397),,,,inactive: 0.079,
LYN isoform 2 (UniProt P07948),,,,inactive: 0.043,inactive: 0.102
MAN2B2 (UniProt Q9Y2E5),inactive: 0.087,inactive: 0.086,,inactive: -0.007,inactive: 0.255
MARCHF3 (UniProt Q86UD3),,,inactive: 0.022,,inactive: 0.007
LTBR (UniProt P36941),inactive: -0.043,inactive: 0.106,,,inactive: -0.267
LYRM1 (UniProt O43325),,,inactive: -0.071,inactive: 0.031,inactive: 0.25

# Part of the list above, with bars between the fields.
Target | log2 fold change [1] | log2 fold change [2] | log2 fold change [3] | log2 fold change [4] | log2 fold change [5]
LYRM4 (UniProt Q9HD34) | inactive: -0.03 | inactive: 0.074 | inactive: 0.077 | inactive: 0.006 | inactive: 0.004
MAPK8 isoform 3 (UniProt P45983) | inactive: -0.01 | inactive: 0.03 | inactive: 0.004 | inactive: 0.071 | inactive: -0.026
MARCHF5 (UniProt Q9NX47) | inactive: 0.061 | inactive: -0.002 | inactive: -0.026 | inactive: 0.032 | inactive: -0.154
MAGEF1 (UniProt Q9HAY2) |  |  |  | inactive: -0.163 | 
MAPK7 (UniProt Q13164) |  |  |  |  | inactive: 0.042
MAGEA6 (UniProt P43360) |  |  | inactive: 0.086 |  | 
MACF1 (UniProt E9PLY5) | inactive: -0.019 | inactive: 0.111 |  |  | inactive: -0.235
MAP3K6 (UniProt O95382) |  |  | inactive: 0.012 |  | 
MAGEB10 (UniProt Q96LZ2) |  |  |  |  | inactive: -0.147
LYN isoform 2 (UniProt P07948) |  |  |  | inactive: 0.043 | inactive: 0.102
